The list shows a part of the results. Residues, ends and D or L forms follow the SMILES beside them. *: point of attachment. Cbz = O=C(OCc1ccccc1)*
Tests used:
Assay in all cases: log2 fold change, soluble protein after heating vs DMSO (PISA); higher = thermal stabilisation; K562 cells, 10 uM, 30 min; active = over 0.2 and 3.5 SD of the protein, either way, in both replicates (recomputed)
[1] = compound: C1COCCN1CCN2C3=CC=CC=C3N=C2NC(=O)C4=CC(=CC=C4)[N+](=O)[O-] [IRAK-1-4 Inhibitor I]
In short: (§1)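 K562 cells at 2×10^6 cells/mL were treated for 30 min with 10 μM compound, and aliquots were heated for 3 min over 48°C-58°C before pooling. Extraction used PBS with 0.5% NP-40 at 4°C, and soluble protein was the supernatant after 21,000xg for 90 min, measured by TMTpro 16plex LC-MS/MS with channel sums equalised. Thermal stability values, relative to control samples and from duplicates, are log2 fold changes.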

Protein sequences, listed by entry. Tags and fused reporters are not part of them. Lines headed by an entry give the natural chain unless they say otherwise; changes in a name come on top.
UniProt P49641: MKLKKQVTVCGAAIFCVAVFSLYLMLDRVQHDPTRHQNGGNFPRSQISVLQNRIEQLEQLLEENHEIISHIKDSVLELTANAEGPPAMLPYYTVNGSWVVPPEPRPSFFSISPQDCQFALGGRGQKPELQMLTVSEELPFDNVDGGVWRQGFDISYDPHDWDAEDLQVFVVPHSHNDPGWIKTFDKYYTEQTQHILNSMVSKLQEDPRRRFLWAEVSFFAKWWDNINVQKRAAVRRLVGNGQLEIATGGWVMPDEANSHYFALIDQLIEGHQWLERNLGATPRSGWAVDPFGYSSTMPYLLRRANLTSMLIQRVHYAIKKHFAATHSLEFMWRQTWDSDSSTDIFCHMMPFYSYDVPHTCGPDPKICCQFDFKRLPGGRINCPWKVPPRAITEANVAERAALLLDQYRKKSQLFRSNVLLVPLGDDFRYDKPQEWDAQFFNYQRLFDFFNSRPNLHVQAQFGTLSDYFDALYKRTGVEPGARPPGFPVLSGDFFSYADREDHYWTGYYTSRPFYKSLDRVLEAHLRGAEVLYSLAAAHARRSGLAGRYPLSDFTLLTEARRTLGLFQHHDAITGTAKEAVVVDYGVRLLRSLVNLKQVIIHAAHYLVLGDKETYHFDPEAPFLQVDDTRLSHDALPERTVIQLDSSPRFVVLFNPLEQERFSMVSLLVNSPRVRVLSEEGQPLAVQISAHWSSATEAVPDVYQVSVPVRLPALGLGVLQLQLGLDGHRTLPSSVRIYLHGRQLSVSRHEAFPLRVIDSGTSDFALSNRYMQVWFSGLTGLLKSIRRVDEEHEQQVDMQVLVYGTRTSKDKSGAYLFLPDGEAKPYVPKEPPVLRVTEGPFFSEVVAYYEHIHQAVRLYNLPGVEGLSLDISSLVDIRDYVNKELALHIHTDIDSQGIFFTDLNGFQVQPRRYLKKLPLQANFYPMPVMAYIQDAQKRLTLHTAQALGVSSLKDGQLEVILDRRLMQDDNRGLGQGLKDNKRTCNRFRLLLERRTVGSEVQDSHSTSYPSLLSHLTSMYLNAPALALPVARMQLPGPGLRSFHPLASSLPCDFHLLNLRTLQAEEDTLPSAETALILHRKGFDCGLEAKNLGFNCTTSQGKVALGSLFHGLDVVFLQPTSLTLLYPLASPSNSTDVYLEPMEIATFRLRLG
UniProt Q9NX47: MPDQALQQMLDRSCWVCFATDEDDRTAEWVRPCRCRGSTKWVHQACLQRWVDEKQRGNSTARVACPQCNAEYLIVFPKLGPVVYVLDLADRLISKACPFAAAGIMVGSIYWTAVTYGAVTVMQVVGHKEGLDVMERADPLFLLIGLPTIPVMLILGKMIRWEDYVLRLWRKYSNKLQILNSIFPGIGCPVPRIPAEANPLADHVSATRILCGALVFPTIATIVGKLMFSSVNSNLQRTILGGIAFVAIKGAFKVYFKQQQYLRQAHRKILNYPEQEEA
UniProt Q5U5X0: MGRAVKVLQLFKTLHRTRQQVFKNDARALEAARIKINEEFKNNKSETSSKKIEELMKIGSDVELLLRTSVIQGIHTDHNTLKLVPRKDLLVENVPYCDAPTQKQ
UniProt O15479: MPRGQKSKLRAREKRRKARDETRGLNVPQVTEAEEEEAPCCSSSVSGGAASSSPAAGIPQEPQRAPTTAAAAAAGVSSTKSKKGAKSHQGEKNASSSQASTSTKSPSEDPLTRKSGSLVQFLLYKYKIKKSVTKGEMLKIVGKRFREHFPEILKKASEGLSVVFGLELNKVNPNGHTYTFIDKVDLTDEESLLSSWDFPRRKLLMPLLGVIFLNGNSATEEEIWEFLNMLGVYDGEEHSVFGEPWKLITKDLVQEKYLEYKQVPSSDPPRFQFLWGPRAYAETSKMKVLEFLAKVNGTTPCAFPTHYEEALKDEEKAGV
UniProt P12980: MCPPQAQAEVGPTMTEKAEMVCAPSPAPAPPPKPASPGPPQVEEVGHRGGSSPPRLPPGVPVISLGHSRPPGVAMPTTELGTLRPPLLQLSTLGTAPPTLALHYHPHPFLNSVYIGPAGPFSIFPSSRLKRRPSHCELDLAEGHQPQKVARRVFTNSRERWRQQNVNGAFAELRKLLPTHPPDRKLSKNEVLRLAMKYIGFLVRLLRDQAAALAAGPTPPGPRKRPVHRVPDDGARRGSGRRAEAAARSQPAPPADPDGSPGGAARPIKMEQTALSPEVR
UniProt P09960: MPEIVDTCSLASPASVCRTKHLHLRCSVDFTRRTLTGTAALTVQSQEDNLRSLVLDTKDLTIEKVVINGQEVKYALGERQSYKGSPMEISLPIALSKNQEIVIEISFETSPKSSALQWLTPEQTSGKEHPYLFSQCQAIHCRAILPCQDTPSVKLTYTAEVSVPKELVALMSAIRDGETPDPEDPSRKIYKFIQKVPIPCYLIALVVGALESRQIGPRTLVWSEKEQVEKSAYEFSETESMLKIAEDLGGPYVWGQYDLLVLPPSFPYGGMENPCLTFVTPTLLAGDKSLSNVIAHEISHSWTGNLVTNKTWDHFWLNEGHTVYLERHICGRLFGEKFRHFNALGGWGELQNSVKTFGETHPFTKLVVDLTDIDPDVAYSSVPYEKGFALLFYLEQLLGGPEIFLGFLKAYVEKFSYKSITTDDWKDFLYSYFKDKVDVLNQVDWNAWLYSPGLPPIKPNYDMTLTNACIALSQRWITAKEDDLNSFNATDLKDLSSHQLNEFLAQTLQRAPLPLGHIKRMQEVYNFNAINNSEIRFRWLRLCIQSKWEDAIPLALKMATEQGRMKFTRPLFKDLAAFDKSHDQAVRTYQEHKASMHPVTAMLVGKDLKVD
UniProt P27361, whole entry, looked up: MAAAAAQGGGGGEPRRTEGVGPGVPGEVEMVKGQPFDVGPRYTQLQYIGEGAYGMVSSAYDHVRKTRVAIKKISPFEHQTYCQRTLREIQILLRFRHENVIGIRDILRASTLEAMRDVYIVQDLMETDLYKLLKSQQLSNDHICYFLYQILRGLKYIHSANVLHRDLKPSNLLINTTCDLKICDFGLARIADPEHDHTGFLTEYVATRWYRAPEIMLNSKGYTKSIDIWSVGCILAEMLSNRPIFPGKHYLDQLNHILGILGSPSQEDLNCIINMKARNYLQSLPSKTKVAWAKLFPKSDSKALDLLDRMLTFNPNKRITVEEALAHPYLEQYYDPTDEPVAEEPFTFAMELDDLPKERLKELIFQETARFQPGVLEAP
UniProt O60476: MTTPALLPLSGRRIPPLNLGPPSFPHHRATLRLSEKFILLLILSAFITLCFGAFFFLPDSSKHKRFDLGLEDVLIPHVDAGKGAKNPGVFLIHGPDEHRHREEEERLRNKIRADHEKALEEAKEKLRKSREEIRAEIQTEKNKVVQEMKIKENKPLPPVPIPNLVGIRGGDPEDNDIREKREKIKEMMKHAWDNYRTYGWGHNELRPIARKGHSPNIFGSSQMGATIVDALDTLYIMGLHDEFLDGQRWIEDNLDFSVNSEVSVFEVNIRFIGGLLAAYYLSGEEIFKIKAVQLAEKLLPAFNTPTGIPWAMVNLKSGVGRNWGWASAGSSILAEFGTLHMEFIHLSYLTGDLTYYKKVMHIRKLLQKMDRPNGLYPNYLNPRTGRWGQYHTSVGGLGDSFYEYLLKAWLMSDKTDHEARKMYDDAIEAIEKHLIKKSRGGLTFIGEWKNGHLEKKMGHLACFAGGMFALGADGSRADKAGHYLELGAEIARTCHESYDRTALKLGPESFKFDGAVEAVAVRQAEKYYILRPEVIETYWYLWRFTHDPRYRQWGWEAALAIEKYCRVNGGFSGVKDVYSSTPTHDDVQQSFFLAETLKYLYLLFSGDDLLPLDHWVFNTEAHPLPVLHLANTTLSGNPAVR
UniProt P46821: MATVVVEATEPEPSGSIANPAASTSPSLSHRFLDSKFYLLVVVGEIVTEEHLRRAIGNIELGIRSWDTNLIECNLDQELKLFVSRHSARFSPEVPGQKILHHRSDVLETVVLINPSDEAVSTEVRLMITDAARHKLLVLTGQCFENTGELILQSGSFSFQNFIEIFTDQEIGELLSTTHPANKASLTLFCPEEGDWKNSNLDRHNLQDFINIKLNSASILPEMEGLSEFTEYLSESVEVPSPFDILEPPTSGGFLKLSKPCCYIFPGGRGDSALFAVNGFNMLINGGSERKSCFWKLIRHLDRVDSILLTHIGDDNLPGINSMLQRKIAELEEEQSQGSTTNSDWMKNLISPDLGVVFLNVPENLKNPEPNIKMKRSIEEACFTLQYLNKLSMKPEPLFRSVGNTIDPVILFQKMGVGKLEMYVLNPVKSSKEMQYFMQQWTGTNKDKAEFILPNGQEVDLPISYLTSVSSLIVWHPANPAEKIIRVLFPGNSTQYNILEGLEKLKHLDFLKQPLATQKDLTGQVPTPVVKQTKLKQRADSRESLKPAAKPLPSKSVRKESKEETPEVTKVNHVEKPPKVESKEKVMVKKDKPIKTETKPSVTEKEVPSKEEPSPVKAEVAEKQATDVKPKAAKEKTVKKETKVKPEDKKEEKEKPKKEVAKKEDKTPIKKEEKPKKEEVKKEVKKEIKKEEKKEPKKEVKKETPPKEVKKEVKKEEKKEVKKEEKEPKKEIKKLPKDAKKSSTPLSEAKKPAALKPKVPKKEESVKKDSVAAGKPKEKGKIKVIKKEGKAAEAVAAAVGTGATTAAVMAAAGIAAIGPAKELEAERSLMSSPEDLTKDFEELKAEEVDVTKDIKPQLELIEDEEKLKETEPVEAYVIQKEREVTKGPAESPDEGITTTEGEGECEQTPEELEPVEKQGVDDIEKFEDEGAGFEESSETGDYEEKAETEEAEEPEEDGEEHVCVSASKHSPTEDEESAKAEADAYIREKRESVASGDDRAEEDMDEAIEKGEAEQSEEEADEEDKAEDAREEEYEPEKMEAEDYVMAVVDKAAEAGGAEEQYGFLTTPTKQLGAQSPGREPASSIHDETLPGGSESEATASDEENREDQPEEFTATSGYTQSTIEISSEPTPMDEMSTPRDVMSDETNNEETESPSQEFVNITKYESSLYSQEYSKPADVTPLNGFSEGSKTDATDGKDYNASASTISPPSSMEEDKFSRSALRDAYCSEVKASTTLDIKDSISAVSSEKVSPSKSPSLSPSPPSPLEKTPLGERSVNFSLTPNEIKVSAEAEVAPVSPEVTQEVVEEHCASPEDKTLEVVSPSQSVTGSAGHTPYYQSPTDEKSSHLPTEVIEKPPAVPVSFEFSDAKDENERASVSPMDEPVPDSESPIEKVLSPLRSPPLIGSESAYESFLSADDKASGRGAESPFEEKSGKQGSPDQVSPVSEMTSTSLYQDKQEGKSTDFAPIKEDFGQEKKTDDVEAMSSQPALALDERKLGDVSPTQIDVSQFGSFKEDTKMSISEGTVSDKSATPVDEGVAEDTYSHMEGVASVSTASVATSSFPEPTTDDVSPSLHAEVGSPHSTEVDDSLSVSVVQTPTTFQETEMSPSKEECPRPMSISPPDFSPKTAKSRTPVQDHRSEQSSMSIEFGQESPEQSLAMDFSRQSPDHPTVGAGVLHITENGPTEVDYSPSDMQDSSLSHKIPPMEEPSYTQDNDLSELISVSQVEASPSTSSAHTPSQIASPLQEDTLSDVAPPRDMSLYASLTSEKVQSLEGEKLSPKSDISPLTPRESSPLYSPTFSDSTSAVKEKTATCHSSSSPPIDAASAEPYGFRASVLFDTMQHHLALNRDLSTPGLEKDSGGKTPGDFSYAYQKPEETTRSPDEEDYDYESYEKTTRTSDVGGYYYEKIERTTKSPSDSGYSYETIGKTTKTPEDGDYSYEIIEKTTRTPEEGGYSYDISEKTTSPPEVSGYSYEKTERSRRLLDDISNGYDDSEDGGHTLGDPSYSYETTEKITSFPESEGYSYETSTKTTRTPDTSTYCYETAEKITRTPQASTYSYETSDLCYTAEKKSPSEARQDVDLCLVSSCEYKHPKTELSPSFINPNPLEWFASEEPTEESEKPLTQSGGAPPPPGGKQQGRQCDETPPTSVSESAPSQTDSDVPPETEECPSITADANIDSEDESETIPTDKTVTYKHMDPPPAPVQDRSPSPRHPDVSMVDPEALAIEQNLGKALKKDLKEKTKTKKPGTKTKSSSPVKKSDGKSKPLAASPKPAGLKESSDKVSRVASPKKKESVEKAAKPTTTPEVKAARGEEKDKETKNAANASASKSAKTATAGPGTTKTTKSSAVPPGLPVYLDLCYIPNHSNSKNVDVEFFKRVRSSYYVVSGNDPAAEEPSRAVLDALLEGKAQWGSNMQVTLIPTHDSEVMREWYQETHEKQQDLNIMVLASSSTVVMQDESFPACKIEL

[2] = compound: C=CC(=O)N1CCC[C@@H](n2nc(-c3ccc(Oc4ccccc4)cc3)c3c(N)ncnc32)C1 [ibrutinib]
In short: as §1

[3] = compound: CC(=O)c1cnc2ccc(-c3cc(Cl)c(O)c(Cl)c3)nc2c1N[C@H]1CC[C@H](CN(C)C)CC1
In short: as §1

[4] = compound: CC(C)(C)Cn1c(N)nc2ccc(-c3[nH]c(C(C)(C)C)nc3-c3ccc(F)cc3)nc21 [ralimetinib]
In short: as §1

[5] = compound: CC(C)(O)CC(=O)NCCn1ccc2ncnc(Nc3ccc(Oc4cccc(C(F)(F)F)c4)c(Cl)c3)c21
In short: as §1

[6] = compound: CC(C)C1=C2N=C(C=C(N2N=C1)NCC3=CC=CC=C3)NCCCCCCN
In short: as §1

[7] = compound: CC(C)C[C@@H](C=O)NC(=O)[C@H](CC(C)C)NC(=O)[C@H](CC(C)C)NC(=O)OCc1ccccc1
In short: as §1

[8] = compound: CC(C)N(C[C@H]1O[C@@H](n2cnc3c(N)ncnc32)[C@H](O)[C@@H]1O)[C@H]1C[C@@H](CCc2nc3cc(C(C)(C)C)ccc3[nH]2)C1 [pinometostat]
In short: as §1

[9] = compound: CC1=C(C(CC(=O)N1)C2=CC=C(C=C2)C(F)(F)F)C(=O)NC3=C(C=C4C(=C3)C=NN4)F
In short: as §1

[10] = compound: CC1=C(C2=C(C=C1)C(=O)C3=CC=CC=C3N2CCCN)C
In short: as §1

[11] = compound: CC1=C(C=C(C=C1)NC(=O)C2=CC(=CC=C2)C(C)(C)C#N)NC3=CC4=C(C=C3)N=CN(C4=O)C
In short: as §1

[12] = compound: CC1=C(C=C(C=C1)NC(=O)C2=CC(=CC=C2)N(C)C)NC(=O)C3=CC=C(C=C3)O
In short: as §1

[13] = compound: CC1=CC=C(C=C1)SC2=C3C=C(SC3=CN=C2)C(=O)N
In short: as §1

[14] = compound: CC1=NC(=CC=C1)C2=C(N=C(N2)C(C)(C)C)C3=CC4=NC=CN=C4C=C3
In short: as §1

[15] = compound: CCCCN(Cc1ccc(C(=O)NO)cc1)C(=O)Nc1ccccc1 [Nexturastat A]
In short: as §1

[16] = compound: CCCS(=O)(=O)Nc1ccc(F)c(C(=O)c2c[nH]c3ncc(-c4ccc(Cl)cc4)cc23)c1F [vemurafenib]
In short: as §1

[17] = compound: CCCS(=O)(=O)Nc1ccc(F)c(C(=O)c2c[nH]c3ncc(Cl)cc23)c1F
In short: as §1

[18] = compound: CCCc1cc(C)[nH]c(=O)c1CNC(=O)c1cc(-c2ccnc(N3CCN(C)CC3)c2)cc2c1cnn2C(C)C
In short: as §1

[19] = compound: CCN(CC)Cc1ccc2cc(COC(=O)Nc3ccc(C(=O)NO)cc3)ccc2c1 [givinostat]
In short: as §1

[20] = compound: CCN(CCCOc1ccc2c(Nc3cc(CC(=O)Nc4cccc(F)c4)[nH]n3)ncnc2c1)CCOP(=O)(O)O [barasertib]
In short: as §1

Measured: log2 fold change

MAP7 isoform 7 (UniProt Q14244)
inactive: [1] -0.135 | [2] 0.119 | [3] 0.07 | [4] 0.088 | [5] 0.103 | [6] 0.156 | [7] 0.054 | [8] 0.355 | [9] 0.037 | [10] -0.255 | [11] -0.03 | [12] 0.011 | [13] -0.107 | [14] -0.087 | [15] 0.217 | [16] -0.188 | [17] -0.104 | [18] 0.161 | [19] 0.14 | [20] -0.078

MAN1B1 (UniProt Q9UKM7)
inactive: [1] 0.019 | [2] -0.016 | [3] -0.037 | [4] -0.014 | [5] -0.065 | [6] -0.078 | [7] -0.005 | [8] 0.031 | [9] -0.011 | [10] 0.054 | [11] -0.064 | [12] -0.007 | [13] -0.009 | [14] 0.004 | [15] -0.013 | [16] 0.028 | [17] 0.035 | [18] 0.035 | [19] 0.023 | [20] 0.005

MAN2A2 (UniProt P49641)
inactive: [1] -0.027 | [2] -0.017 | [3] -0.012 | [4] 0.059 | [5] -0.009 | [6] 0.031 | [7] 0.013 | [8] 0.01 | [9] -0.024 | [10] 0.01 | [11] 0.034 | [12] -0.044 | [13] -0.006 | [14] 0.049 | [15] -0.016 | [16] -0.041 | [17] -0.047 | [18] -0.056 | [19] -0.024 | [20] -0.011

MARCHF5 (UniProt Q9NX47)
inactive: [1] 0.073 | [2] -0.015 | [3] -0.011 | [4] -0.045 | [5] 0.049 | [6] 0.056 | [7] 0.023 | [8] -0.026 | [9] 0.011 | [10] 0.01 | [11] -0.019 | [12] 0.02 | [13] -0.011 | [14] 0.003 | [15] 0.003 | [16] 0.034 | [17] 0.033 | [18] -0.032 | [19] 0.041 | [20] -0.05

LYRM7 (UniProt Q5U5X0)
inactive: [1] 0.011 | [2] -0.006 | [3] -0.003 | [4] 0.037 | [5] 0.021 | [6] -0.094 | [7] -0.009 | [8] 0.045 | [9] -0.014 | [10] 0.039 | [11] 0.028 | [12] 0.035 | [13] 0.013 | [14] -0.057 | [15] -0.057 | [16] -0.009 | [17] -0.002 | [18] -0.012 | [19] -0.025 | [20] 0.001

MAGEB2 (UniProt O15479)
inactive: [1] -0.065 | [2] 0.219 | [3] 0.127 | [4] 0.085 | [5] 0.195 | [6] -0.071 | [7] 0.119 | [8] 0.297 | [9] 0.021 | [10] -0.305 | [11] 0.012 | [12] 0.284 | [13] 0.022 | [14] -0.154 | [15] 0.119 | [16] -0.094 | [17] 0.052 | [18] -0.226 | [19] 0.118 | [20] -0.08

LYL1 (UniProt P12980)
inactive: [1] 0.271 | [2] 0.032 | [3] -0.186 | [4] 0.05 | [5] -0.085 | [6] 0.016 | [7] 0.187 | [8] -0.056 | [9] 0.043 | [10] 0.061 | [11] -0.002 | [12] 0.001 | [13] 0.114 | [14] -0.171 | [15] -0.099 | [16] -0.187 | [17] 0.015 | [18] 0.165 | [19] -0.035 | [20] 0.018

LTA4H (UniProt P09960)
inactive: [1] -0.014 | [2] -0.017 | [3] 0.029 | [4] -0.037 | [5] -0.028 | [6] -0.005 | [7] -0.037 | [8] -0.042 | [9] -0.017 | [10] 0.081 | [11] 0.018 | [12] 0.001 | [13] 0.132 | [14] 0.01 | [15] -0.082 | [16] 0.027 | [17] 0.078 | [18] -0.011 | [19] 0.022 | [20] 0.003

LTF (UniProt P02788)
inactive: [1] 0.111 | [2] 0.136 | [3] 0.027 | [4] -0.13 | [5] 0.186 | [6] 0.016 | [7] 0.073 | [8] 0 | [9] 0.028 | [10] -0.235 | [11] -0.156 | [12] 0.507 | [13] 0.147 | [14] 0.027 | [15] 0.011 | [16] 0.015 | [17] -0.163 | [18] -0.101 | [19] -0.192 | [20] 0.087

MAPK3 (UniProt P27361)
inactive: [1] 0.043 | [2] 0.023 | [3] 0.019 | [4] 0.029 | [5] -0.061 | [6] -0.006 | [7] -0.002 | [8] -0.011 | [9] -0.025 | [10] 0 | [11] 0.076 | [12] -0.042 | [13] 0.104 | [14] 0.099 | [15] -0.059 | [16] 0.089 | [17] 0.116 | [18] 0.037 | [19] -0.008 | [20] -0.056

MAK16 (UniProt Q9BXY0)
inactive: [1] -0.319 | [2] -0.016 | [3] 0.064 | [4] 0.086 | [5] 0.069 | [6] -0.07 | [7] 0.004 | [8] 0.068 | [9] -0.011 | [10] -0.073 | [11] 0.042 | [12] -0.005 | [13] -0.001 | [14] -0.044 | [15] 0.044 | [16] -0.049 | [17] 0.007 | [18] 0.016 | [19] -0.098 | [20] -0.099

LYZ (UniProt P61626)
inactive: [1] -0.035 | [2] 0.178 | [3] 0.208 | [4] -0.028 | [5] 0.029 | [6] -0.209 | [7] -0.074 | [8] -0.005 | [9] -0.906 | [10] -0.005 | [11] -0.085 | [12] 0.219 | [13] 0.156 | [14] -0.069 | [15] -0.116 | [16] -0.142 | [17] -0.131 | [18] -0.019 | [19] 0.488 | [20] 0.602

MAN1A2 (UniProt O60476)
inactive: [1] 0.006 | [2] -0.022 | [3] -0.06 | [4] -0.051 | [5] 0 | [6] -0.016 | [7] 0.048 | [8] -0.016 | [9] -0.022 | [10] -0.013 | [11] -0.007 | [12] -0.009 | [13] 0.005 | [14] 0.03 | [15] -0.048 | [16] 0.021 | [17] 0.031 | [18] 0.003 | [19] 0.025 | [20] -0.01

MAN1A1 (UniProt P33908)
inactive: [1] 0.001 | [2] -0.004 | [3] 0.03 | [4] -0.034 | [5] 0.044 | [6] 0.093 | [7] -0.026 | [8] -0.001 | [9] -0.016 | [10] -0.005 | [11] -0.024 | [12] -0.013 | [13] -0.009 | [14] -0.038 | [15] -0.009 | [16] -0.076 | [17] -0.01 | [18] -0.003 | [19] 0.026 | [20] 0.009

MAP1B (UniProt P46821)
inactive: [1] -0.035 | [2] -0.01 | [3] -0.012 | [4] 0.04 | [5] 0.044 | [6] 0.04 | [7] 0.004 | [8] 0.025 | [9] 0 | [10] 0.019 | [11] -0.037 | [12] -0.012 | [13] -0.017 | [14] -0.032 | [15] 0.052 | [16] -0.027 | [17] -0.032 | [18] 0.002 | [19] 0.003 | [20] -0.033

Fetched one by one from the list above, two records:
MAK16 (UniProt Q9BXY0)
inactive: [1] -0.319 | [2] -0.016 | [3] 0.064 | [4] 0.086 | [5] 0.069 | [6] -0.07 | [7] 0.004 | [8] 0.068 | [9] -0.011 | [10] -0.073 | [11] 0.042 | [12] -0.005 | [13] -0.001 | [14] -0.044 | [15] 0.044 | [16] -0.049 | [17] 0.007 | [18] 0.016 | [19] -0.098 | [20] -0.099

MAN1A1 (UniProt P33908)
inactive: [1] 0.001 | [2] -0.004 | [3] 0.03 | [4] -0.034 | [5] 0.044 | [6] 0.093 | [7] -0.026 | [8] -0.001 | [9] -0.016 | [10] -0.005 | [11] -0.024 | [12] -0.013 | [13] -0.009 | [14] -0.038 | [15] -0.009 | [16] -0.076 | [17] -0.01 | [18] -0.003 | [19] 0.026 | [20] 0.009

From the supplement of paper PMC10849652
